{
  "sequences": {"note": "Chains of the proteins cited; added tags and fusions are not shown. Residues count along the entry.", "UniProt P08909, 33-460 limits assumed": "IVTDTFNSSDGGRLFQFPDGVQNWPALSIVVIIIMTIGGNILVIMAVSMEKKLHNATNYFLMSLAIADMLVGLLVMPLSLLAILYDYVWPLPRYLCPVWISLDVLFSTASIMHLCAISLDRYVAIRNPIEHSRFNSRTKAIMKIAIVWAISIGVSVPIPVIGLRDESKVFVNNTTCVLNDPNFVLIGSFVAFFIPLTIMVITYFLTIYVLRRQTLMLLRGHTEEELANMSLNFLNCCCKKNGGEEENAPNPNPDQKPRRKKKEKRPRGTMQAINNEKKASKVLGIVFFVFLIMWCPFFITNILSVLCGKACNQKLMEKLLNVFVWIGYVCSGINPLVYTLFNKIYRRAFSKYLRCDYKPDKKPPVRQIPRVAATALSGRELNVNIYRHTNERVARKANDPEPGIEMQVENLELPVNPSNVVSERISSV"},
  "source": "patent US8993575B2",
  "about": "“[1,3,4] oxadiazole derivative and application thereof” (Huazhong University of Science & Technology, priority 2011, dated 2015)",
  "target": "5HT2C (Rattus norvegicus (Rat), UniProt P08909)",
  "experiment": "5HT2C receptor binding assay ([3H]-mesulergine, rat brain mantle membrane)",
  "conditions": "test compound final concentration 10^-5 M",
  "description": "Incubation at 37° C. was conducted for 10 min, the weight of the tubes were adjusted using a balance after the incubation. […] Centrifugation was conducted (repeated 3 times).",
  "data": [
    {"smiles": "O=C1CCc2ccc(OCCCCN3CCN(c4cccc(Cl)c4Cl)CC3)cc2N1", "note": "[aripiprazole, reference compound]", "values": [
      {"measurement": "inhibition at 10 µM", "result": 99.8, "unit": "%"}
    ]}
  ]
}
